Taken from: PubChem BioAssay AID652243 (Drosophila RNAi Screening Center, 2013)
Aim: 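Knock-downs that decrease or increase androgen receptor reporter signal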 (primary screen). Cell system: Drosophila S2R+ cells. Reagent: long dsRNA against Drosophila genes. Duration: 72 h (48 h, then 24 h hormone). Challenge: synthetic androgen R1881 at 10 nM for 24 h. Read-out: 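Per-well raw luminescence of the androgen-driven firefly reporter and of the Renilla control, two replicates each, without normalisation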. Reading the numbers: firefly reporter light: higher = more light from androgen-responsive reporter; Renilla control light: higher = more constitutive control signal (cell number, transfection). Rule for the call: 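Hit when the log firefly-to-Renilla ratio dropped or increased by a fixed fold versus the mean of GFP or LacZ controls across duplicate plates; lowering cut given as 1.5 and as 3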. Calls: active = hit: reporter lowered or raised; inactive = no hit.
The deposit covers about 24,000 reagents; shown is an unselected part of those with a known target gene and a result. Over the whole deposit, 246 (1%) are marked active. 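Plates not normalised; calls are printed but the firefly/Renilla ratio behind them is not deposited; fold cut for lowering reported inconsistently.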 The raw values are shown without normalisation. A plus sign joins genes that one reagent is predicted to hit. The record does not give: the amount of reagent.

Which result is listed for eIF2Bdelta [DRSC04058]?
firefly reporter light, replicate 1: 7.41e5; firefly reporter light, replicate 2: 8.10e5; Renilla control light, replicate 1: 1.04e6; Renilla control light, replicate 2: 1.08e6; Call: inactive

With Cyp28a5 [DRSC03297], how do the results read?
firefly reporter light, replicate 1: 7.48e5; firefly reporter light, replicate 2: 8.96e5; Renilla control light, replicate 1: 1.47e6; Renilla control light, replicate 2: 2.71e6; Call: inactive

What did the screen give for exd [DRSC20330]?
firefly reporter light, replicate 1: 4.74e5; firefly reporter light, replicate 2: 4.34e5; Renilla control light, replicate 1: 4.15e6; Renilla control light, replicate 2: 3.66e6; Call: inactive

What is on record for exd [DRSC30099]?
firefly reporter light, replicate 1: 1.10e6; firefly reporter light, replicate 2: 9.20e5; Renilla control light, replicate 1: 8.66e5; Renilla control light, replicate 2: 8.62e5; Call: inactive

What is on record for DnaJ-H [DRSC03273]?
firefly reporter light, replicate 1: 2.63e5; firefly reporter light, replicate 2: 2.45e5; Renilla control light, replicate 1: 1.58e6; Renilla control light, replicate 2: 1.71e6; Call: inactive

For CG14327 [DRSC14806], what does the deposit list?
firefly reporter light, replicate 1: 2.14e5; firefly reporter light, replicate 2: 2.05e5; Renilla control light, replicate 1: 2.58e6; Renilla control light, replicate 2: 2.56e6; Call: inactive

Which result is listed for snRNA:U11 [DRSC36526]?
firefly reporter light, replicate 1: 6.86e5; firefly reporter light, replicate 2: 5.41e5; Renilla control light, replicate 1: 1.48e6; Renilla control light, replicate 2: 1.28e6; Call: inactive

How did the screen score lqf [DRSC11363]?
firefly reporter light, replicate 1: 1.23e6; firefly reporter light, replicate 2: 7.79e5; Renilla control light, replicate 1: 1.89e6; Renilla control light, replicate 2: 1.59e6; Call: inactive

With lqf [DRSC27882], how do the results read?
firefly reporter light, replicate 1: 9.60e5; firefly reporter light, replicate 2: 4.94e5; Renilla control light, replicate 1: 3.23e6; Renilla control light, replicate 2: 2.02e6; Call: inactive

With Ibf1 [DRSC16419], what was measured?
firefly reporter light, replicate 1: 22550; firefly reporter light, replicate 2: 36170; Renilla control light, replicate 1: 5.58e5; Renilla control light, replicate 2: 3.96e5; Call: inactive

With snky [DRSC09838], what was measured?
firefly reporter light, replicate 1: 2.00e5; firefly reporter light, replicate 2: 1.47e5; Renilla control light, replicate 1: 1.46e6; Renilla control light, replicate 2: 1.85e6; Call: inactive

What is on record for CG30100 + CG42372 [DRSC30025]?
firefly reporter light, replicate 1: 7.09e5; firefly reporter light, replicate 2: 5.10e5; Renilla control light, replicate 1: 1.43e6; Renilla control light, replicate 2: 1.40e6; Call: inactive

What did the screen give for CG42366 [DRSC02760]?
firefly reporter light, replicate 1: 52173; firefly reporter light, replicate 2: 54245; Renilla control light, replicate 1: 6.27e5; Renilla control light, replicate 2: 6.90e5; Call: inactive

With CG42366 [DRSC23297], what does the deposit list?
firefly reporter light, replicate 1: 7.49e5; firefly reporter light, replicate 2: 8.04e5; Renilla control light, replicate 1: 1.22e6; Renilla control light, replicate 2: 1.69e6; Call: inactive

How did the screen score CG42366 [DRSC36982]?
Call: inactive

For CG42366 [DRSC36983], what does the deposit list?
Call: inactive

As entered above:
Result of CG14327 [DRSC14806] in “Renilla control light, replicate 1”: 2.58e6
For “Call”, CG42366 [DRSC36983] reads inactive
